Data: PubChem BioAssay AID651705 (Broad Institute, 2012)
What follows is the remainder of the data, with few or none of the hits. The source made the active and inactive calls.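 How the source made its calls: active means every separate test run was called active for a drop in luminescence, with AC50 within twice the top valid dose (actives reach about 71 µM in these data); inconclusive means the separate test runs disagree in their calls; inactive means all runs inactive, including signal change in the wrong direction.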

test: bead-based luminescence quenchers, dual-tagged ARNT – biochemical, AlphaScreen, cherry-pick, artefact control for ARNT-TACC3 interaction inhibitor project, dose response (AID 651705); details: His-ARNT PASB-GST AlphaScreen artifact counter-screen; at 68 µM (top of the series);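 further: 0% = neutral control wells with protein and -100% = buffer without protein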

SMILES | activity change, negative = signal decrease
O=C1NC[C@H](c2ccccc2)OC(=O)[C@H](Cc2ccc(F)cc2)CC/C=C/C[C@@H]1CC(=O)N(CCO)Cc1ccccc1 | inactive: -22.6%
